Measurements: publication PMC8844045

The chains behind the UniProt entries cited, without tags or fusion partners. Where a name states a change or a piece, a line headed by the entry shows the natural chain unless it says otherwise.
UniProt Q9NFU0: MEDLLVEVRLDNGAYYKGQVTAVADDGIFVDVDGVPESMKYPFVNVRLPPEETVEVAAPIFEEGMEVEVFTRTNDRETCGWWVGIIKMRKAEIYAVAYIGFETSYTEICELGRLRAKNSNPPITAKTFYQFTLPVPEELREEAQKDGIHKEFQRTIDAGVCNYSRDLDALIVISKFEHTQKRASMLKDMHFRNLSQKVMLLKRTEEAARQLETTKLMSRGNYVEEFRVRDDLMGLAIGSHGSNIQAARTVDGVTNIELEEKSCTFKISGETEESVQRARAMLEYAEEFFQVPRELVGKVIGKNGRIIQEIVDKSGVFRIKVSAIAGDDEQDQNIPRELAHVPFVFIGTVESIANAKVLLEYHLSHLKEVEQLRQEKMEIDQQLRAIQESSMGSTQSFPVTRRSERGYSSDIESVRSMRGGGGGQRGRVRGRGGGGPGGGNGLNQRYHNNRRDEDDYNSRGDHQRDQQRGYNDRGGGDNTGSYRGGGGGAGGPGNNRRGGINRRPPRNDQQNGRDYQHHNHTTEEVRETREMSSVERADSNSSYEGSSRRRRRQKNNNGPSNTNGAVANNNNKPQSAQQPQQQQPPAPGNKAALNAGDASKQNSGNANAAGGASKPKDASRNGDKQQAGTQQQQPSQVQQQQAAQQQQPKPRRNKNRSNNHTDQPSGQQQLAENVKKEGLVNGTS

Legend:
FMR1 (MBP fusion) = FMR1 (MBP fusion) (UniProt Q9NFU0); assay: EMSA; details: EMSA: 10 mM HEPES pH 7.4, 50 mM KCl, 1 mM DTT (printed DDT), 1 mM EDTA, 0.05% Triton X-100, 5% glycerol, 10 ng/ul salmon DNA, 25 C, then 0.2% glutaraldehyde, recombinant protein, letters put together from the description
[1] = molecular target: T1, Ythdf (endogenous) (Drosophila (w1118 embryos)) (UniProt Q9VBZ5); assay: pull-down, immunoblot; details: pull-down: 10 mM Tris-HCl pH 7.5, 150 mM KCl, 1.5 mM MgCl2, 0.1% NP-40, 0.5 mM DTT, 4 C, protein in an extract, label: biotin-16-UTP, letters put together from the description
T1 sequence (looked up, limits assumed): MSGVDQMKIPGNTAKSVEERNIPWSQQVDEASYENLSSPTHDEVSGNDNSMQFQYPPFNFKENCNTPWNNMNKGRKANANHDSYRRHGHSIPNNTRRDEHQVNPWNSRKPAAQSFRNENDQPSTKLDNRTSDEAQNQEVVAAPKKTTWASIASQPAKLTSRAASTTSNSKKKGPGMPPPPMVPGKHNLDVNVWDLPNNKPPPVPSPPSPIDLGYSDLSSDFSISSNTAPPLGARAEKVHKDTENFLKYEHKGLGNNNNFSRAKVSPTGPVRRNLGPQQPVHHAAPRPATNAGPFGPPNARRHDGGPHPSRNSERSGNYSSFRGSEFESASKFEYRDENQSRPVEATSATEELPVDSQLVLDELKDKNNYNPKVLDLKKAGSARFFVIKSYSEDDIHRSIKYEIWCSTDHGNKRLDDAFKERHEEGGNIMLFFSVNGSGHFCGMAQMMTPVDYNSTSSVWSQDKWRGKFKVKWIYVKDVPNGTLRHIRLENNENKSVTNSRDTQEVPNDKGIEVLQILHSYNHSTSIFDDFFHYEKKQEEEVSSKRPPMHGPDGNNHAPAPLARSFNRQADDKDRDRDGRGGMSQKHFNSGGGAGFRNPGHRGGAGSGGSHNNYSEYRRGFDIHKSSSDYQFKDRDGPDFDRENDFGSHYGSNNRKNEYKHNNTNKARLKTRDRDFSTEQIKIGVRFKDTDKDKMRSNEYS

[2] = molecular target: T2, Ythdc (endogenous) (Drosophila (w1118 embryos)) (UniProt Q9VZQ1); assay: pull-down, immunoblot; details: pull-down: 10 mM Tris-HCl pH 7.5, 150 mM KCl, 1.5 mM MgCl2, 0.1% NP-40, 0.5 mM DTT, 4 C, protein in an extract, label: biotin-16-UTP, letters put together from the description
T2 sequence (looked up, limits assumed): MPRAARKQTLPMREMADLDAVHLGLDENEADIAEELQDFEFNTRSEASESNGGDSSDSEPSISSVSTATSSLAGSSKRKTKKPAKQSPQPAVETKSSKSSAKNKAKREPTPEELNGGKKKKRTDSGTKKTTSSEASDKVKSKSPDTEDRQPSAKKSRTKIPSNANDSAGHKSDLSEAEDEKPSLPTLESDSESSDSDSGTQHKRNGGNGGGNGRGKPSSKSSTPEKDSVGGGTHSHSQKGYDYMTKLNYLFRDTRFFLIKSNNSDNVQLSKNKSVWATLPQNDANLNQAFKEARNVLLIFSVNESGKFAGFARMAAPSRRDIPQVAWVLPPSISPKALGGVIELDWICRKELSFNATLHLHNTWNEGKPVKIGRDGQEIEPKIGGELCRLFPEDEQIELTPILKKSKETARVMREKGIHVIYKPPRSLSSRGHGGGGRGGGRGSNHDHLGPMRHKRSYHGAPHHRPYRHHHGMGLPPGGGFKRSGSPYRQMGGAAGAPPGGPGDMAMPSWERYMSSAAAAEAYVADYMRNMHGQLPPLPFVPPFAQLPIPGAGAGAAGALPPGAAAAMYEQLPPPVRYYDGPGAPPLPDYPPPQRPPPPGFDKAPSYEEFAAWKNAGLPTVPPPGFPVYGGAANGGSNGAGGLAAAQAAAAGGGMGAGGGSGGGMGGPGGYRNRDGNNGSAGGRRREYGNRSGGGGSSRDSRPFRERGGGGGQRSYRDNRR

[3] = molecular target: FMR1 (endogenous) (Drosophila (w1118 embryos)) (UniProt Q9NFU0); assay: pull-down, immunoblot; details: pull-down: 10 mM Tris-HCl pH 7.5, 150 mM KCl, 1.5 mM MgCl2, 0.1% NP-40, 0.5 mM DTT, 4 C, protein in an extract, label: biotin-16-UTP, letters put together from the description
hYthdf2 (human) = molecular target: T3, hYthdf2 (human) (UniProt Q9Y5A9); assay: EMSA; details: all A = m6A (m6ATP); EMSA: 10 mM HEPES pH 7.4, 50 mM KCl, 1 mM DTT (printed DDT), 1 mM EDTA, 0.05% Triton X-100, 5% glycerol, 10 ng/ul salmon DNA, 25 C, then 0.2% glutaraldehyde; recombinant protein; residues 300-579; label: biotin-16-UTP; letters put together from the description
T3 sequence (looked up): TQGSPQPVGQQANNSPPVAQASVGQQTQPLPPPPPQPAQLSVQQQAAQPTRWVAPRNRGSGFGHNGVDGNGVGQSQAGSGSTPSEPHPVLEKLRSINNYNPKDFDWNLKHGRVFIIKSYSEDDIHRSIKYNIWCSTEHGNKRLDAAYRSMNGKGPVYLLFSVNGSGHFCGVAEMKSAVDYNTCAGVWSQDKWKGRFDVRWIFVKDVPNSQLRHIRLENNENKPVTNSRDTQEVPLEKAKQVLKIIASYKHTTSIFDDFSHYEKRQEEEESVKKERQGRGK

[4] = all A = m6A (m6ATP), label: biotin-16-UTP

| Sequence | binding result (FMR1 (MBP fusion); [4]) | binding result (FMR1 (MBP fusion); label: biotin-16-UTP) | other results |
| --- | --- | --- | --- |
| GGGAAACUAAACUAAACUGAAACUAAACUAAACUGAAACUAAACUAAACUGUAC [AAACU (9x), m6A] | binds more weakly | – | – |
| GGGAAACUAAACUAAACUGAAACUAAACUAAACUGAAACUAAACUAAACUGUAC [AAACU (9x), unmodified] | – | binds more weakly | – |
| GGGAGACUAGACUAGACUGAGACUAGACUAGACUGAGACUAGACUAGACUGUAC [AGACU (9x), unmodified] | – | binds more weakly | – |
| GGGAGCCUAGCCUAGCCUGAGCCUAGCCUAGCCUGAGCCUAGCCUAGCCUGUAC [AGCCU (9x), m6A] | binds more weakly | – | – |
| GGGGAACUGAACUGAACUGGAACUGAACUGAACUGGAACUGAACUGAACUGUAC [GAACU (9x), m6A] | binds more weakly | – | – |
| GGGGAACUGAACUGAACUGGAACUGAACUGAACUGGAACUGAACUGAACUGUAC [GAACU (9x), unmodified] | – | binds more weakly | – |
| GGGGACUAGACUGAACUGGGACUAGACUGAACUGGGACUAGACUGAACUGUAC [mixed GGACU/AGACU/GAACU probe, m6A] | – | – | binding result ([1]; all A = m6A (m6ATP)): no binding; binding result ([2]; all A = m6A (m6ATP)): binds; binding result ([3]; all A = m6A (m6ATP)): binds; binding result (hYthdf2 (human)): binds |
| GGGGACUAGACUGAACUGGGACUAGACUGAACUGGGACUAGACUGAACUGUAC [mixed GGACU/AGACU/GAACU probe, unmodified] | – | binds more weakly | binding result [1]: no binding; binding result [2]: no binding; binding result [3]: binds more weakly |
| GGGGCCUAGCCUGACCUGGGCCUAGCCUGACCUGGGCCUAGCCUGACCUGU [GACCU mutant RNA, unmodified] | – | – | binding result (FMR1 (MBP fusion)): no binding |
| GGGGGACUGGACUGGACUGGGACUGGACUGGACUGGGACUGGACUGGACUGUAC [GGACU (9x), m6A] | binds more weakly | – | – |
| GGGGGACUGGACUGGACUGGGACUGGACUGGACUGGGACUGGACUGGACUGUAC [GGACU (9x), unmodified] | – | binds more weakly | – |
| GGUAGACAAGACAAGACAAGACAAGACAAGACAAGACAAGACAAGACAGUACU [AGACA (9x), m6A] | binds more weakly | – | – |
| GGUAGACCAGACCAGACCAGACCAGACCAGACCAGACCAGACCAGACCGUACU [AGACC (9x), m6A] | binds more weakly | – | – |

Construct, isoform or probe ends are uncertain for at least one entry. For some of these results: No signal at the amounts used counts as a negative. For some of these results: At least one verdict rests on a figure or table, not on a statement of the authors. For some of these results: The comparison behind a weaker result is the experiment's own reference, which may not be listed here. For some of these results: At least one result comes from cells or an extract, where the contact may be indirect. For some of these results: Where a protein sequence is shown, tags need not be part of it.
